According to PubChem BioAssay AID624297 (National Center for Advancing Translational Sciences (NCATS), 2012):
About 6,200 (1.8%) of roughly 340,000 compounds were called active. The inconclusive results got no clear call from the source; some entries with a clear call stand among them for comparison. Calls follow the shape of the dose curve; as a rule, active = well fitted activation curve with a large enough effect; inconclusive = small, poorly fitted or top-dose-only effect; inactive = no such curve, though single readings can be large or run the other way. A potency beside an inconclusive call is a rough fit, not a confirmed value.

Assay: A quantitative high throughput screen for small molecules that induce DNA re-replication in SW480 colon adenocarcinoma cells. Also: nearly all actives have a fitted effect of over 55% in size.
Conditions: Hoechst DNA content imaging, 48 h; series mostly up to 46.1 µM
Summary of the method: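 250 cells/well; 23 nL cpd via pin tool; 48 hr, 37 C, 5% CO2; Hoechst 40 min; imager read of total nuclear intensity, ex 405/em 500-530 nm.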
Potency is read from the fitted curve at half-maximal effect.

Row | SMILES | Potency
1 | Cc1ccccc1SCC(=O)NCC(c1ccc(F)cc1)N1CCOCC1 (stereo not given) | inconclusive: 29.1 µM [activator, single point]
2 | CCOC(=O)c1ccc2c(c1)n(CCCS(=O)(=O)[O-])c(/C=C/c1ccc(Cl)cc1)[n+]2CC | inconclusive: 4.61 µM [activator, single point]
3 | COCC(=O)Nc1ccc(S(=O)(=O)NCC2CCCO2)cc1 (stereo not given) | inactive
4 | COc1ccc(/C=C/C(=O)c2ccc(NC(=O)c3cccs3)cc2)cc1OC | inconclusive: 20.6 µM [activator, single point]
5 | Cc1cccn2c(=O)c3cc(C(=O)NCC4CCCO4)c(=N)n(CCc4ccccc4)c3nc12 (stereo not given) | inconclusive: 1.3 µM [activator, partial curve, poor fit]
6 | Cc1ccc(S(=O)(=O)Nc2ccc(-n3c(C)nc4ccccc4c3=O)cc2)cc1 | inconclusive: 29.1 µM [activator, single point]
7 | COc1cccc(-n2nc(C#N)c(Cl)cc2=O)c1 | inconclusive: 2.06 µM [activator, full curve, poor fit]
8 | Cc1ccc(S(=O)(=O)CCC(=O)NC2CCCC2)cc1 | active: 20.6 µM
9 | Nc1ccccc1C(=O)/C=C/c1ccc2c(c1)OCO2 | active: 18.4 µM
10 | Cn1ccnc1SCC(=O)n1c2c(c3ccccc31)CCCC2 | inactive
11 | CCOc1ccc2c(c1)-c1c(ssc1=S)C(C)(C)N2C(=O)CSC1=NCCS1 | inconclusive: 23.1 µM [activator, single point]
12 | CCCCN1C(=O)C(O)=C(C(C)=O)C1c1ccccc1 (stereo not given) | inactive
13 | N#C/C(=C\c1cn(-c2ccccc2)nc1-c1cc2ccccc2o1)c1nc2ccccc2[nH]1 | active: 2.91 µM
14 | COc1ccc(S(=O)(=O)N2CCOCC2)cc1NC(=O)CSc1nnc(N)s1 | inactive
15 | COc1ccc(C(=O)C(OC(=O)c2ccccc2)c2ccccc2)cc1 (stereo not given) | inactive
16 | Cc1ccc(NC(=O)c2ncn(CCCN(CCCn3cnc(C(=O)Nc4ccc(C)c(C)c4)n3)Cc3ccc4[nH]ccc4c3)n2)cc1C | inconclusive: 20.6 µM [activator, single point]
17 | COC(=O)Nc1ccc(S(=O)(=O)N2CCCCC2)cc1 | inactive
18 | COc1ccc(NC(=S)NCc2ccc3c(c2)cc(C)n3C)cc1 | inactive
19 | CC(OC(=O)c1cc(Br)ccc1O)C(=O)NC1(C#N)CCCCC1 (stereo not given) | inactive
20 | CC(=O)Nc1ccc(S(=O)(=O)c2cc(O)ccc2O)cc1 | inconclusive: 2.06 µM [activator, partial curve, poor fit]
21 | Cc1cccc(C)c1NC(=O)CN1C(=O)C(C)Oc2ccccc21 (stereo not given) | inconclusive: 0.103 µM [activator, full curve, poor fit]
22 | CCOc1c(C)cc(S(=O)(=O)NCc2cccnc2)c(C)c1C | inactive
23 | CC1CCCCN1C(=O)c1ccc(Br)o1 (stereo not given) | inconclusive: 0.0046 µM [activator, full curve, poor fit]
24 | COc1cccc(/C=C/C(=O)OCC(=O)NCc2ccco2)c1 | inconclusive: 0.164 µM [activator, full curve, poor fit]

Row | SMILES | Potency
25 | COc1ccc(/C=C2\SC(=S)N(CCCC(=O)NC3CCCC3)C2=O)cc1OC | inconclusive: 2.91 µM [activator, single point]
26 | CN(C)c1ccc(/C=C/c2ccc3ccccc3[n+]2C)cc1 | active: 2.31 µM
27 | Cc1ccc2nc(-c3cccnc3)cc(C(=O)N3CCN(c4ccc([N+](=O)[O-])cc4)CC3)c2c1 | inactive
28 | O=[N+]([O-])c1cc(S(=O)(=O)Nc2cccc(C(F)(F)F)c2)ccc1-n1nnc2ccccc21 | inconclusive: 2.31 µM [activator, partial curve, poor fit]
29 | CC(C)N1CCOC1c1ccccc1 (stereo not given) | inconclusive: 20.6 µM [activator, partial curve, poor fit]
30 | CC(=O)NCCc1ccc(S(=O)(=O)Nc2cccnc2)cc1 | inconclusive: 20.6 µM [activator, single point]
31 | COc1ccc(NC(=O)CC2C(=O)N(c3ccc(Cl)cc3)C(=S)N2CCc2ccccn2)cc1 (stereo not given) | inconclusive: 29.1 µM [activator, partial curve, poor fit]
32 | O=C(N=Nc1c(O)n(Cc2ccccc2)c2ccccc12)c1cc2ccccc2cc1O | inconclusive: 14.6 µM [activator, partial curve, poor fit]
33 | CCCc1cc(=O)oc2cc(OC(=O)CN3C(=O)NC4(CCCC4)C3=O)ccc12 | inactive
34 | CCOC(=O)C1CCCN(S(=O)(=O)c2c(C)[nH]c(C)c2C(=O)N2CCCC2)C1 (stereo not given) | inconclusive: 29.1 µM [activator, single point]
35 | CCOC(=O)N1CCN(C(=O)CN(Cc2ccc(Cl)cc2)S(C)(=O)=O)CC1 | inactive
36 | CC(NC(=O)c1cc2cc(Br)ccc2oc1=N)c1ccccc1 (stereo not given) | inactive
37 | Cc1ccc(SCC(=O)Nc2ccc3c(c2)C(=O)NC3=O)cc1 | inconclusive: 3.66 µM [activator, full curve]
38 | Cc1cc(N2CCCCC2)nc2ccc(NC(=O)CCC(=O)NCCC(C)C)cc12 | inconclusive: 29.1 µM [activator, partial curve, poor fit]
39 | CCCS(=O)(=O)N1CCCC(C(=O)N2CCCCC2)C1 (stereo not given) | inactive
40 | CCN(CC)S(=O)(=O)c1ccc(C(=O)Nc2cc(C)on2)cc1 | inactive
41 | CC1(C)Cc2ccccc2-c2nc(NN)[nH]c(=O)c21 | inconclusive: 18.4 µM [activator, partial curve, poor fit]
42 | Cc1ccc(NC(=O)c2ncn(CC(=O)N[C@H](CO)Cc3c[nH]c4ccccc34)n2)cc1C | inconclusive: 2.91 µM [activator, single point]
43 | COc1cc(OC)cc(C(=O)Nc2ccc3c(c2)n(C)c(=O)n3C)c1 | inconclusive: 11.6 µM [activator, single point]
44 | CC(NC(=O)c1cn(C)c2ccc(S(=O)(=O)N3CCCC3)cc2c1=O)c1ccccc1 (stereo not given) | inconclusive: 1.84 µM [activator, partial curve, poor fit]
45 | NNC(=O)c1cc2c(ccc3ccccc32)o1 | inconclusive: 23.1 µM [activator, partial curve, poor fit]
46 | CN(C)CCNC(=O)CNC(=S)N(CCCN1CCOCC1)Cc1cccs1 | inactive
47 | CCOC(=O)c1cc(-c2ccccc2)sc1NC(=O)COC(=O)c1ccc(Cl)c(S(N)(=O)=O)c1 | inconclusive: 32.6 µM [activator, partial curve, poor fit]
48 | CCC(=NN=C(CC)c1ccccc1O)c1ccccc1O | inactive

Quoted from the results shown (3 entries):
Row | SMILES | Potency
15 | COc1ccc(C(=O)C(OC(=O)c2ccccc2)c2ccccc2)cc1 (stereo not given) | inactive
16 | Cc1ccc(NC(=O)c2ncn(CCCN(CCCn3cnc(C(=O)Nc4ccc(C)c(C)c4)n3)Cc3ccc4[nH]ccc4c3)n2)cc1C | inconclusive: 20.6 µM [activator, single point]
17 | COC(=O)Nc1ccc(S(=O)(=O)N2CCCCC2)cc1 | inactive

Remaining list, next part:

Row | SMILES | Potency
49 | CCN(CCCNC(=O)c1cc2c(-c3cccc(OC)c3)nn(C)c2s1)Cc1ccccc1 | inconclusive: 29.1 µM [activator, single point]
50 | O=C(c1cccc(C(=O)N2CCN(c3ccccc3)CC2)c1)N1CCN(c2ccccc2)CC1 | inactive
51 | COc1cc(CN(C)CCc2ccccc2)ccc1OCc1ccccc1 | inconclusive: 29.1 µM [activator, single point]
52 | Cc1cc(C)c2sc(N(CCCN(C)C)C(=O)c3ccc(S(=O)(=O)N(C)Cc4ccccc4)cc3)nc2c1 | inconclusive: 23.1 µM [activator, single point]
53 | Clc1ccccc1C1CC(c2ccccc2)=Nc2ccccc2N1 (stereo not given) | inactive
54 | Cc1cc(C(=O)O)ccc1-c1ccc(/C=C2\NC(=O)N(Cc3ccccc3Cl)C2=O)o1 | inconclusive: 4.61 µM [activator, partial curve, poor fit]
55 | CC1CCc2nc(NC(=O)CN3CCN(c4ccccc4)CC3)sc2C1 (stereo not given) | inactive
56 | O=C(CNS(=O)(=O)c1ccc(Br)cc1)Nc1ccc2c(c1)OCCO2 | inconclusive: 29.1 µM [activator, single point]
57 | Cn1cccc1-c1cc(C(=O)N/N=C/C=C/c2ccccc2)[nH]n1 | inactive
58 | COc1ccc2oc(=O)c(-c3nnc(N)s3)cc2c1 | inconclusive: 11.6 µM [activator, partial curve]
59 | COc1ccc(C2CC(c3ccccc3)Nc3nc(NC(=O)c4ccco4)nn32)cc1 (stereo not given) | inactive
60 | COc1ccccc1N1CCN(S(=O)(=O)CCNC(=O)c2cccc(F)c2)CC1 | inactive
61 | Cc1ccn2c(C(=O)CSc3ccccc3)c(C)nc2c1 | inactive
62 | COc1ccc(Cl)cc1NC(=O)CSc1nnc(Cc2cccn2C)n1-c1ccc(F)cc1 | inconclusive: 29.1 µM [activator, partial curve, poor fit]
63 | CCC(=O)c1cn(CC(=O)O)c2ccccc12 | inconclusive: 11.6 µM [activator, partial curve, poor fit]
64 | COc1ccccc1N(CC(=O)NCCC1=CCCCC1)S(=O)(=O)c1ccccc1 | inactive
65 | Cc1ccnn1CCC(=O)N1CCCC(CCC(=O)NCc2ccccc2F)C1 (stereo not given) | inconclusive: 29.1 µM [activator, partial curve, poor fit]
66 | Cn1ccnc1-c1ccc(-c2nccn2C)cc1 | inactive
67 | O=C(c1ccc2ccccc2c1)N1CCOCC1 | inconclusive: 0.146 µM [activator, full curve, poor fit]
68 | C=CCOC(=O)C1=C(C)NC(SCC(=O)Nc2ccccc2)=C(C#N)C1c1ccco1 (stereo not given) | inconclusive: 20.6 µM [activator, single point]
69 | CCCCCCn1c(=O)c(C(=O)N/N=C/c2cccc(F)c2)c(O)c2ccccc21 | inconclusive: 1.16 µM [activator, partial curve]
70 | O=C(c1cc(S(=O)(=O)N2CCOCC2)c(Cl)cc1Cl)N1CCN(S(=O)(=O)c2cccc(F)c2)CC1 | inconclusive: 23.1 µM [activator, partial curve, poor fit]
